Record: PubChem BioAssay AID1224830 (NIAID, 2016)
Shown is an unselected part of about 18,000 reagents tested. About 2,900 of all reagents (16%) were called active. 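Calls are made per well; low scores hint the gene aids the LPS response, high scores that it dampens it.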 Unmarked entries are inactive. Repeated entries: four replicate wells of each siRNA pool.

Aim: 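Regulators of TLR4 signalling towards TNF-alpha in macrophage-like cells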 (primary screen)
Cells: human THP-1 monocytic leukaemia cells, TNF dual-luciferase reporter clone, PMA-differentiated to macrophage-like cells
Reagents: siRNA pool against human genes, 50 nM
Time to read-out: LPS for 4 h, given about 3 days after siRNA transfection
Treatment: bacterial LPS (TLR4 ligand), 10 ng/ml
Measured: 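TNF firefly reporter luminescence divided by renilla, normalised to the plate median, then turned into a robust z-score for each replicate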
Scale: TNF reporter robust z-score: higher = stronger TNF reporter response to LPS
Hit rule: 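a well is active when its z-score exceeds 2.8 or falls below -1.5; control wells carry no call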

no.	Target gene	TNF reporter robust z-score
1	B4GALT2 (GeneID 8704)	0.45
2	B4GALT2 (GeneID 8704)	1.16
3	B4GALT2 (GeneID 8704)	-0.04
4	B4GALT2 (GeneID 8704)	-0.3
5	MAST4 (GeneID 375449)	0.4
6	MAST4 (GeneID 375449)	0.83
7	MAST4 (GeneID 375449)	0.44
8	MAST4 (GeneID 375449)	0.48
9	QNG1 (GeneID 84267)	0.16
10	QNG1 (GeneID 84267)	0.95
11	QNG1 (GeneID 84267)	0.65
12	QNG1 (GeneID 84267)	0.4
13	UBE2D2 (GeneID 7322)	0.39
14	UBE2D2 (GeneID 7322)	4.31 (active)
15	UBE2D2 (GeneID 7322)	-0.18
16	UBE2D2 (GeneID 7322)	1.29
17	MPP1 (GeneID 4354)	-1.06
18	MPP1 (GeneID 4354)	-0.42
19	MPP1 (GeneID 4354)	-0.52
20	MPP1 (GeneID 4354)	0.71
21	KRTAP5-5 (GeneID 439915)	-0.15
22	KRTAP5-5 (GeneID 439915)	4.07 (active)
23	KRTAP5-5 (GeneID 439915)	-1.67 (active)
24	KRTAP5-5 (GeneID 439915)	-0.51
25	PCDHGA8 (GeneID 9708)	0.35
26	PCDHGA8 (GeneID 9708)	0.15
27	PCDHGA8 (GeneID 9708)	2.07
28	TTC39A (GeneID 22996)	-0.61
29	TTC39A (GeneID 22996)	-0.09
30	TTC39A (GeneID 22996)	0.08
31	TTC39A (GeneID 22996)	0.63
32	SIRT7 (GeneID 51547)	-0.05
33	SIRT7 (GeneID 51547)	1.43
34	SIRT7 (GeneID 51547)	0.18
35	SIRT7 (GeneID 51547)	1.58
36	PRNT (GeneID 149830)	-1.55 (active)
37	PRNT (GeneID 149830)	-0.1
38	PRNT (GeneID 149830)	-0.7
39	PRNT (GeneID 149830)	-1.04
40	EID2B (GeneID 126272)	-0.09
41	EID2B (GeneID 126272)	-0.08
42	EID2B (GeneID 126272)	-0.25
43	EID2B (GeneID 126272)	0.22
44	CCDC110 (GeneID 256309)	0.84
45	CCDC110 (GeneID 256309)	1.15
46	CCDC110 (GeneID 256309)	0.65
47	CCDC110 (GeneID 256309)	0.82
48	TXN (GeneID 7295)	0.98
49	TXN (GeneID 7295)	0.02
50	TXN (GeneID 7295)	-0.33
51	TXN (GeneID 7295)	0.34
52	MPC2 (GeneID 25874)	-1.5
53	MPC2 (GeneID 25874)	1.25
54	MPC2 (GeneID 25874)	0.29
55	MPC2 (GeneID 25874)	-1.11
56	TTC6 (GeneID 319089)	0.79
57	TTC6 (GeneID 319089)	0.15
58	TTC6 (GeneID 319089)	1.92
59	TTC6 (GeneID 319089)	2.63
60	RTN4 (GeneID 57142)	-1.83 (active)
61	RTN4 (GeneID 57142)	-1.2
62	RTN4 (GeneID 57142)	-1.66 (active)
63	RTN4 (GeneID 57142)	-1.01
64	AFP (GeneID 174)	-1.82 (active)
65	AFP (GeneID 174)	-1.58 (active)
66	AFP (GeneID 174)	-0.96
67	AFP (GeneID 174)	-0.33
68	CAMK1 (GeneID 8536)	-0.68
69	CAMK1 (GeneID 8536)	-0.44
70	CAMK1 (GeneID 8536)	-0.69
71	CAMK1 (GeneID 8536)	0.08
72	CCNA1 (GeneID 8900)	-1.22
73	CCNA1 (GeneID 8900)	-0.79
74	CCNA1 (GeneID 8900)	-0.17
75	CCNA1 (GeneID 8900)	2
